Measurements reported in publication PMC7396842.
No constants are given. Whether binding was seen depends on the method and setting. Binding seen in cells or lysates may run through a third protein. For some assays here: Binding can be weak; no strength is given. Sequences can lack the tags named with a protein.

By UniProt entry, the sequences of proteins in these tests, tags left out. Where a name states a change or a piece, a line headed by the entry shows the natural chain unless it says otherwise.
UniProt Q9P0L0: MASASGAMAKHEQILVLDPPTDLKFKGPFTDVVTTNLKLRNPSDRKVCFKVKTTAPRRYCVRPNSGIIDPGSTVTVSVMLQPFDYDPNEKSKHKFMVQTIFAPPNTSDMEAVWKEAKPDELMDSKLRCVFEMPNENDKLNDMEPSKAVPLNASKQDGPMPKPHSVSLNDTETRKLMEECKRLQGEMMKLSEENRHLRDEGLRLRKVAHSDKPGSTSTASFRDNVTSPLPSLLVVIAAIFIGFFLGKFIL
UniProt O95292: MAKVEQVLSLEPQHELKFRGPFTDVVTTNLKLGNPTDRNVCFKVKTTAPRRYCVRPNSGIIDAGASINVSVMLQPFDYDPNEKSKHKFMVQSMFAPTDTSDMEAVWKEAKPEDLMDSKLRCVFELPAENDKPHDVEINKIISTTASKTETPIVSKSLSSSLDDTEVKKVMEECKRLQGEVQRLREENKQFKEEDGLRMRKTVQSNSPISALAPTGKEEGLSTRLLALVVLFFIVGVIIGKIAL

Experiments:
Assay in all cases: pull-down; GST fusion protein from E. coli on Glutathione Sepharose beads; 35S-labelled in vitro translated Myc-tagged protein, precleared, incubated 1 h at 4 °C in NETN buffer (50 mM Tris pH 8.0, 150 mM NaCl, 1 mM EDTA, 0.5% NP-40); five washes; autoradiography; only the target purified
GST-VAPA (WT) (human) = GST-VAPA (WT) (human) (UniProt Q9P0L0)
[1] = target: GST-VAPA K94D/M96D (human) (UniProt Q9P0L0)
[2] = target: GST-VAPB K87D/M89D (human) (UniProt O95292)

Row | Binder | binding (GST-VAPA (WT) (human)) | binding [1] | binding [2]
1 | Myc-CALCOCO1 (full length), in vitro translated (protein, UniProt Q9P1Z2 1-691, 35S-methionine label) MEESPLSRAPSRGGVNFLNVARTYIPNTKVECHYTLPPGTMPSASDWIGIFKVEAACVRDYHTFVWSSVPESTTDGSPIHTSVQFQASYLPKPGAQLYQFRYVNRQGQVCGQSPPFQFREPRPMDELVTLEEADGGSDILLVVPKATVLQNQLDESQQERNDLMQLKLQLEGQVTELRSRVQELERALATARQEHTELMEQYKGISRSHGEITEERDILSRQQGDHVARILELEDDIQTISEKVLTKEVELDRLRDTVKALTREQEKLLGQLKEVQADKEQSEAELQVAQQENHHLNLDLKEAKSWQEEQSAQAQRLKDKVAQMKDTLGQAQQRVAELEPLKEQLRGAQELAASSQQKATLLGEELASAAAARDRTIAELHRSRLEVAEVNGRLAELGLHLKEEKCQWSKERAGLLQSVEAEKDKILKLSAEILRLEKAVQEERTQNQVFKTELAREKDSSLVQLSESKRELTELRSALRVLQKEKEQLQEEKQELLEYMRKLEARLEKVADEKWNEDATTEDEEAAVGLSCPAALTDSEDESPEDMRLPPYGLCERGDPGSSPAGPREASPLVVISQPAPISPHLSGPAEDSSSDSEAEDEKSVLMAAVQSGGEEANLLLPELGSAFYDMASGFTVGTLSETSTGGPATPTWKECPICKERFPAESDKDALEDHMDGHFFFSTQDPFTFE | binds | no binding | no binding
2 | Myc-CALCOCO1 ∆SKICH (∆1–144), in vitro translated (domain or fragment, UniProt Q9P1Z2 145-691, 35S-methionine label) KATVLQNQLDESQQERNDLMQLKLQLEGQVTELRSRVQELERALATARQEHTELMEQYKGISRSHGEITEERDILSRQQGDHVARILELEDDIQTISEKVLTKEVELDRLRDTVKALTREQEKLLGQLKEVQADKEQSEAELQVAQQENHHLNLDLKEAKSWQEEQSAQAQRLKDKVAQMKDTLGQAQQRVAELEPLKEQLRGAQELAASSQQKATLLGEELASAAAARDRTIAELHRSRLEVAEVNGRLAELGLHLKEEKCQWSKERAGLLQSVEAEKDKILKLSAEILRLEKAVQEERTQNQVFKTELAREKDSSLVQLSESKRELTELRSALRVLQKEKEQLQEEKQELLEYMRKLEARLEKVADEKWNEDATTEDEEAAVGLSCPAALTDSEDESPEDMRLPPYGLCERGDPGSSPAGPREASPLVVISQPAPISPHLSGPAEDSSSDSEAEDEKSVLMAAVQSGGEEANLLLPELGSAFYDMASGFTVGTLSETSTGGPATPTWKECPICKERFPAESDKDALEDHMDGHFFFSTQDPFTFE | binds |  | 
3 | Myc-CALCOCO1 ∆145–513, in vitro translated (protein, UniProt Q9P1Z2, 35S-methionine label) MEESPLSRAPSRGGVNFLNVARTYIPNTKVECHYTLPPGTMPSASDWIGIFKVEAACVRDYHTFVWSSVPESTTDGSPIHTSVQFQASYLPKPGAQLYQFRYVNRQGQVCGQSPPFQFREPRPMDELVTLEEADGGSDILLVVPKWNEDATTEDEEAAVGLSCPAALTDSEDESPEDMRLPPYGLCERGDPGSSPAGPREASPLVVISQPAPISPHLSGPAEDSSSDSEAEDEKSVLMAAVQSGGEEANLLLPELGSAFYDMASGFTVGTLSETSTGGPATPTWKECPICKERFPAESDKDALEDHMDGHFFFSTQDPFTFE | binds |  | 
4 | Myc-CALCOCO1 ∆SKICH + ΔLIR FFF/AAA, in vitro translated (domain or fragment, UniProt Q9P1Z2 145-691, 35S-methionine label) KATVLQNQLDESQQERNDLMQLKLQLEGQVTELRSRVQELERALATARQEHTELMEQYKGISRSHGEITEERDILSRQQGDHVARILELEDDIQTISEKVLTKEVELDRLRDTVKALTREQEKLLGQLKEVQADKEQSEAELQVAQQENHHLNLDLKEAKSWQEEQSAQAQRLKDKVAQMKDTLGQAQQRVAELEPLKEQLRGAQELAASSQQKATLLGEELASAAAARDRTIAELHRSRLEVAEVNGRLAELGLHLKEEKCQWSKERAGLLQSVEAEKDKILKLSAEILRLEKAVQEERTQNQVFKTELAREKDSSLVQLSESKRELTELRSALRVLQKEKEQLQEEKQELLEYMRKLEARLEKVADEKWNEDATTEDEEAAVGLSCPAALTDSEDESPEDMRLPPYGLCERGDPGSSPAGPREASPLVVISQPAPISPHLSGPAEDSSSDSEAEDEKSVLMAAVQSGGEEANLLLPELGSAFYDMASGFTVGTLSETSTGGPATPTWKECPICKERFPAESDKDALEDHMDGHAAASTQDPFTFE | binds |  | 
5 | Myc-CALCOCO1 ∆SKICH + ΔLIR ∆671–691, in vitro translated (domain or fragment, UniProt Q9P1Z2 145-670, 35S-methionine label) KATVLQNQLDESQQERNDLMQLKLQLEGQVTELRSRVQELERALATARQEHTELMEQYKGISRSHGEITEERDILSRQQGDHVARILELEDDIQTISEKVLTKEVELDRLRDTVKALTREQEKLLGQLKEVQADKEQSEAELQVAQQENHHLNLDLKEAKSWQEEQSAQAQRLKDKVAQMKDTLGQAQQRVAELEPLKEQLRGAQELAASSQQKATLLGEELASAAAARDRTIAELHRSRLEVAEVNGRLAELGLHLKEEKCQWSKERAGLLQSVEAEKDKILKLSAEILRLEKAVQEERTQNQVFKTELAREKDSSLVQLSESKRELTELRSALRVLQKEKEQLQEEKQELLEYMRKLEARLEKVADEKWNEDATTEDEEAAVGLSCPAALTDSEDESPEDMRLPPYGLCERGDPGSSPAGPREASPLVVISQPAPISPHLSGPAEDSSSDSEAEDEKSVLMAAVQSGGEEANLLLPELGSAFYDMASGFTVGTLSETSTGGPATPTWKECPICKERFPAESDKD | binds weakly |  | 
6 | Myc-CALCOCO1 ∆CT (∆514–691), in vitro translated (domain or fragment, UniProt Q9P1Z2 1-513, 35S-methionine label) MEESPLSRAPSRGGVNFLNVARTYIPNTKVECHYTLPPGTMPSASDWIGIFKVEAACVRDYHTFVWSSVPESTTDGSPIHTSVQFQASYLPKPGAQLYQFRYVNRQGQVCGQSPPFQFREPRPMDELVTLEEADGGSDILLVVPKATVLQNQLDESQQERNDLMQLKLQLEGQVTELRSRVQELERALATARQEHTELMEQYKGISRSHGEITEERDILSRQQGDHVARILELEDDIQTISEKVLTKEVELDRLRDTVKALTREQEKLLGQLKEVQADKEQSEAELQVAQQENHHLNLDLKEAKSWQEEQSAQAQRLKDKVAQMKDTLGQAQQRVAELEPLKEQLRGAQELAASSQQKATLLGEELASAAAARDRTIAELHRSRLEVAEVNGRLAELGLHLKEEKCQWSKERAGLLQSVEAEKDKILKLSAEILRLEKAVQEERTQNQVFKTELAREKDSSLVQLSESKRELTELRSALRVLQKEKEQLQEEKQELLEYMRKLEARLEKVADE | no binding |  | 
